# Experimental data: PubChem BioAssay AID1259405 (NCATS, 2018)
# Screen: 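Silenced genes that increase secreted GFP made by CHO cells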 (primary screen)
# Cells: Chinese hamster CHO-K1 ovary cells with stable secreted eGFP expression
# Reagent: single siRNA against mouse genes, 0.8 pmol siRNA per well (2 µl of 400 nM stock)
# Duration: 3 days
# Measured: 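Per-well intracellular GFP measured by laser scanning cytometry, plus viability from ATP luminescence, each relative to plate median of non-targeting control wells, in %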
# Scale: GFP, % of control: higher = more GFP per well, higher productivity; viability (ATP), % of control: higher = more viable cells (more ATP)
# Rule for the call: 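Called active when intracellular GFP, relative to negative control, is at or above 120%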
# The whole screen tested about 50,000 reagents; this is a part drawn at random. In the full data, about 4,000 (8%) are marked active. 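Mouse siRNA library applied to hamster cells; one well for each siRNA.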 Reagents against one gene are numbered here.
target,siRNA no.,"GFP, % of control","viability (ATP), % of control",activity call
Gin1 (gypsy retrotransposon integrase 1),1,70.5,70.2,inactive
Gin1 (gypsy retrotransposon integrase 1),2,67.2,66.3,inactive
Gin1 (gypsy retrotransposon integrase 1),3,89.3,97.8,inactive
Tmem79 (transmembrane protein 79),1,48.7,58.2,inactive
Tmem79 (transmembrane protein 79),2,89.6,83.7,inactive
Tmem79 (transmembrane protein 79),3,84.8,78.3,inactive
"Bud23 (BUD23, rRNA methyltransferase and ribosome maturation factor)",1,77.5,93.6,inactive
"Bud23 (BUD23, rRNA methyltransferase and ribosome maturation factor)",2,60,70.9,inactive
"Bud23 (BUD23, rRNA methyltransferase and ribosome maturation factor)",3,77.3,95.1,inactive
"Tap2 (transporter 2, ATP-binding cassette, sub-family B (MDR/TAP))",1,116,88.9,inactive
"Tap2 (transporter 2, ATP-binding cassette, sub-family B (MDR/TAP))",2,77.2,58.1,inactive
"Tap2 (transporter 2, ATP-binding cassette, sub-family B (MDR/TAP))",3,101,81.5,inactive
Ehd2 (EH-domain containing 2),1,131,125,active
Ehd2 (EH-domain containing 2),2,57.2,69.4,inactive
Ehd2 (EH-domain containing 2),3,84.5,94.3,inactive
Cd36 (CD36 molecule),1,70.2,61,inactive
Cd36 (CD36 molecule),2,82,60.6,inactive
Cd36 (CD36 molecule),3,80.6,65.8,inactive
Cntn4 (contactin 4),1,80.6,60.8,inactive
Cntn4 (contactin 4),2,60.5,57.2,inactive
Cntn4 (contactin 4),3,87.1,86.3,inactive
Srd5a2 (steroid 5 alpha-reductase 2),1,74.3,100,inactive
Srd5a2 (steroid 5 alpha-reductase 2),2,82.7,48.4,inactive
Srd5a2 (steroid 5 alpha-reductase 2),3,93.4,101,inactive
Mrps10 (mitochondrial ribosomal protein S10),1,116,60,inactive
Mrps10 (mitochondrial ribosomal protein S10),2,120,58.1,active
Mrps10 (mitochondrial ribosomal protein S10),3,92.3,49.8,inactive
Cbr4 (carbonyl reductase 4),1,69.6,72.5,inactive
Cbr4 (carbonyl reductase 4),2,77.1,87.1,inactive
Cbr4 (carbonyl reductase 4),3,69.2,63.1,inactive
Tgif1 (TGFB-induced factor homeobox 1),1,46.5,48,inactive
Tgif1 (TGFB-induced factor homeobox 1),2,72.8,78.9,inactive
Tgif1 (TGFB-induced factor homeobox 1),3,59.3,80.4,inactive
Shroom3 (shroom family member 3),1,59.1,63.1,inactive
Shroom3 (shroom family member 3),2,73.1,65.7,inactive
Shroom3 (shroom family member 3),3,34.2,48.3,inactive
Jak1 (Janus kinase 1),1,39,19.7,inactive
"Gjb2 (gap junction protein, beta 2)",1,56.2,74.9,inactive
"Gjb2 (gap junction protein, beta 2)",2,80.3,91.2,inactive
"Gjb2 (gap junction protein, beta 2)",3,91.4,116,inactive
Ripply3 (ripply transcriptional repressor 3),1,52.3,61.9,inactive
Ripply3 (ripply transcriptional repressor 3),2,74.8,80.5,inactive
Ripply3 (ripply transcriptional repressor 3),3,57.4,83.5,inactive
Cideb,1,109,121,inactive
Cideb,2,65.9,58.5,inactive
Cideb,3,138,130,active
Gsk3a (glycogen synthase kinase 3 alpha),1,30.5,62.2,inactive
Lrwd1 (leucine-rich repeats and WD repeat domain containing 1),1,64.4,83.1,inactive
Lrwd1 (leucine-rich repeats and WD repeat domain containing 1),2,63.8,71,inactive
Lrwd1 (leucine-rich repeats and WD repeat domain containing 1),3,97.6,101,inactive
"Col9a3 (collagen, type IX, alpha 3)",1,60.8,121,inactive
"Col9a3 (collagen, type IX, alpha 3)",2,87.7,90.9,inactive
Sp3 (trans-acting transcription factor 3),1,13.2,19.3,inactive
Sp3 (trans-acting transcription factor 3),2,63.3,41.8,inactive
Sp3 (trans-acting transcription factor 3),3,84.6,69.9,inactive
Gfi1 (growth factor independent 1 transcription repressor),1,78.6,70,inactive
Gfi1 (growth factor independent 1 transcription repressor),2,71.6,60.3,inactive
Or56b34 (olfactory receptor family 56 subfamily B member 34),1,118,70.5,inactive
Or56b34 (olfactory receptor family 56 subfamily B member 34),2,82.1,72.7,inactive
Or56b34 (olfactory receptor family 56 subfamily B member 34),3,83.5,91.5,inactive
Cadm3 (cell adhesion molecule 3),1,110,46,inactive
Cadm3 (cell adhesion molecule 3),2,58.3,60.5,inactive
Cadm3 (cell adhesion molecule 3),3,89.8,78.5,inactive
"Mylpf (myosin light chain, phosphorylatable, fast skeletal muscle)",1,79.5,93,inactive
"Mylpf (myosin light chain, phosphorylatable, fast skeletal muscle)",2,56.2,59.8,inactive
"Prkar2a (protein kinase, cAMP dependent regulatory, type II alpha)",1,114,95.5,inactive
"Prkar2a (protein kinase, cAMP dependent regulatory, type II alpha)",2,91.8,86.6,inactive
Rgs5 (regulator of G-protein signaling 5),1,95.8,81.5,inactive
Rgs5 (regulator of G-protein signaling 5),2,98.3,87.2,inactive
Rgs5 (regulator of G-protein signaling 5),3,85,86.2,inactive
Vmn1r236 (vomeronasal 1 receptor 236),1,34.4,16.9,inactive
Vmn1r236 (vomeronasal 1 receptor 236),2,110,109,inactive
Vmn1r236 (vomeronasal 1 receptor 236),3,48.2,51.9,inactive
"Rab44 (RAB44, member RAS oncogene family)",1,102,88.3,inactive
"Rab44 (RAB44, member RAS oncogene family)",2,82.3,67.2,inactive
"Rab44 (RAB44, member RAS oncogene family)",3,37.6,57.9,inactive
"Ippk (inositol 1,3,4,5,6-pentakisphosphate 2-kinase)",1,97.8,98.9,inactive
"Ippk (inositol 1,3,4,5,6-pentakisphosphate 2-kinase)",2,110,81.7,inactive
Samd8 (sterile alpha motif domain containing 8),1,76.9,71.4,inactive
Samd8 (sterile alpha motif domain containing 8),2,73.6,54.9,inactive
Samd8 (sterile alpha motif domain containing 8),3,87.8,92,inactive
Srebf2 (sterol regulatory element binding factor 2),1,114,117,inactive
Srebf2 (sterol regulatory element binding factor 2),2,112,84.5,inactive
Srebf2 (sterol regulatory element binding factor 2),3,76.4,69.8,inactive

Entries listed above with an active call, once more:
target,siRNA no.,"GFP, % of control","viability (ATP), % of control",activity call
Ehd2 (EH-domain containing 2),1,131,125,active
Mrps10 (mitochondrial ribosomal protein S10),2,120,58.1,active
Cideb,3,138,130,active
